# Laboratory results taken from publication PMC10879859.
# No constants are given. Whether binding was seen depends on the method and setting. Binding seen in cells or lysates may run through a third protein. Binding can be weak; no strength is given.
# Biological target: T1, choline-ethanolamine phosphotransferase 1 (CEPT1) (human (endogenous in 293T)) (UniProt Q9Y6K0)
# T1 sequence: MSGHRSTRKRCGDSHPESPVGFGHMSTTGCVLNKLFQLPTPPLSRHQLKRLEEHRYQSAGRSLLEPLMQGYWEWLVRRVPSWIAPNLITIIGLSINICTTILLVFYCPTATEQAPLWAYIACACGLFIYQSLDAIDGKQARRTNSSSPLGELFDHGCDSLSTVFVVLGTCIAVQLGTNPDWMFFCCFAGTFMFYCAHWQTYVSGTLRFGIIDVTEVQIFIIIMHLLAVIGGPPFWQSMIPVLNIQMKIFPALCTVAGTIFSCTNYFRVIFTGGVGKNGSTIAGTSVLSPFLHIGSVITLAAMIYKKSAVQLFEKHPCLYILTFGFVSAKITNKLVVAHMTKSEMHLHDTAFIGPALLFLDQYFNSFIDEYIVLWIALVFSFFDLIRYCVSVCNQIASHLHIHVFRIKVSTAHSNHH
# Experiment: co-IP; co-IP of CEPT1 with immunoblot for CCTα and CK, with or without 1 mM Ca^2+; CEPT1-ablated cells as control
substance,measurement,value
choline kinase (CK) (human (endogenous in 293T)) (enzyme),binding,binds
